The exact form of at least one protein or probe is not confirmed. For some of these results: Negatives hold for the conditions tested. Tags and fusion partners may be left off the protein sequences shown.

Data set [1] deals with T1, Rev-erb alpha (UniProt Q3UV55).
T1 sequence (looked up, limits assumed): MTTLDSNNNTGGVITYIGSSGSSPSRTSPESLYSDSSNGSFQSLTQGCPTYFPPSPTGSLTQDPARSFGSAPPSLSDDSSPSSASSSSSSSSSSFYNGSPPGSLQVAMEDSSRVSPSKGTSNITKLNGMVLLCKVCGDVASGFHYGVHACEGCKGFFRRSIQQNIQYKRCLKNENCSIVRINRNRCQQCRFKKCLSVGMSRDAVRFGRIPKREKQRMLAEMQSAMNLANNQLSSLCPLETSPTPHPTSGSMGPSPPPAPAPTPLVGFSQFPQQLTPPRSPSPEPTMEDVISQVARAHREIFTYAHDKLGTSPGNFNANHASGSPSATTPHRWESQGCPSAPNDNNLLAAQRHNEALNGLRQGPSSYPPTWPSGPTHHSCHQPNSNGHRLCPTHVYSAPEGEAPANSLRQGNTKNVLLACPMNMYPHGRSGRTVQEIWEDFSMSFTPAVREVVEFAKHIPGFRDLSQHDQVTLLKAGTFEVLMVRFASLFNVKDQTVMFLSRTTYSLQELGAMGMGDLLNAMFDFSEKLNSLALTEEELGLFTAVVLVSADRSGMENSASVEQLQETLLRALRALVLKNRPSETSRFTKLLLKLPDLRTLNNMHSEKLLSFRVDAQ
The data set is described as follows: competition with a labelled probe. The note with it: 1 pmol unlabeled mutant did not compete with 1 fmol wild-type probe in EMSA; protein translated in vitro; protein details: TNT reticulocyte lysate; variant of Bmal1 RORE wild-type. (In general: Mobility shift assays separate free from complexed probe on a gel.)

The target in data set [2] is T2, Rev-erb beta (UniProt Q60674).
T2 sequence (looked up, limits assumed): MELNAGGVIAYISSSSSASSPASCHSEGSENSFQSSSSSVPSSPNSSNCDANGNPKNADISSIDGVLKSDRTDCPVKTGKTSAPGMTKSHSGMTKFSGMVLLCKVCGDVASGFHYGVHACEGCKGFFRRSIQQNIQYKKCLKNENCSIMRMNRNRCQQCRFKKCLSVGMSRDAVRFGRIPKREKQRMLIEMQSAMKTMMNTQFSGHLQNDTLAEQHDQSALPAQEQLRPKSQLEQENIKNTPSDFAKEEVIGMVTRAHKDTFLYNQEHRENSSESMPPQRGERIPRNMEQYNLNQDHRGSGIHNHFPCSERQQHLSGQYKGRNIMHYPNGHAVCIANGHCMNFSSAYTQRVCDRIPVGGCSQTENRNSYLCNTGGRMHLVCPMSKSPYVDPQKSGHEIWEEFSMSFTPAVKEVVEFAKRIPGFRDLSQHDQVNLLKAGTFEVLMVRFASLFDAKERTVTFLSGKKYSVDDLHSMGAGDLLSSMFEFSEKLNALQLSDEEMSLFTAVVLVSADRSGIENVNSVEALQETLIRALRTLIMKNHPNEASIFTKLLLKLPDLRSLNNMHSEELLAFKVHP
As to the kind of experiment: competition with a labelled probe. The note with it: 1 pmol unlabeled mutant did not compete with 1 fmol wild-type probe in EMSA; protein translated in vitro; protein details: TNT SP6 reticulocyte lysate, pCMV-Sport6 cDNA; variant of Bmal1 RORE wild-type.

Data set [3] concerns the target T3, Rora1 (UniProt P51448).
T3 sequence (looked up, limits assumed): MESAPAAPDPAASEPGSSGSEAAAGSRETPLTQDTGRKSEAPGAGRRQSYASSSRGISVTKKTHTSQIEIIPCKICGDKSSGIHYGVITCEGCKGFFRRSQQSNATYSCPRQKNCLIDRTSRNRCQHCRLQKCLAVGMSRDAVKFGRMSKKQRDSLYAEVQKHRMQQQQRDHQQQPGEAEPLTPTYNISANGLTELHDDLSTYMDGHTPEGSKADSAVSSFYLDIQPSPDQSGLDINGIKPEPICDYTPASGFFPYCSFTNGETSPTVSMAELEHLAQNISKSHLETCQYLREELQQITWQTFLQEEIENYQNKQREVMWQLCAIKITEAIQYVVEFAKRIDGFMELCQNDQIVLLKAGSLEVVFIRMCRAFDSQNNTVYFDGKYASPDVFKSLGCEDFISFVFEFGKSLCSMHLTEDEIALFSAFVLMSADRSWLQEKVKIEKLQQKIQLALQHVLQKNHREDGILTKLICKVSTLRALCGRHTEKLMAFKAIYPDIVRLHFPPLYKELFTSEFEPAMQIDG
As to the kind of experiment: competition with a labelled probe. The note with it: 1 pmol unlabeled mutant did not compete with 1 fmol wild-type probe in EMSA; protein translated in vitro; protein details: TNT SP6 reticulocyte lysate, pCMV-Sport6 cDNA; variant of Bmal1 RORE wild-type.

Data set [4] has as its system T4, Rora4.
T4 sequence (looked up, limits assumed): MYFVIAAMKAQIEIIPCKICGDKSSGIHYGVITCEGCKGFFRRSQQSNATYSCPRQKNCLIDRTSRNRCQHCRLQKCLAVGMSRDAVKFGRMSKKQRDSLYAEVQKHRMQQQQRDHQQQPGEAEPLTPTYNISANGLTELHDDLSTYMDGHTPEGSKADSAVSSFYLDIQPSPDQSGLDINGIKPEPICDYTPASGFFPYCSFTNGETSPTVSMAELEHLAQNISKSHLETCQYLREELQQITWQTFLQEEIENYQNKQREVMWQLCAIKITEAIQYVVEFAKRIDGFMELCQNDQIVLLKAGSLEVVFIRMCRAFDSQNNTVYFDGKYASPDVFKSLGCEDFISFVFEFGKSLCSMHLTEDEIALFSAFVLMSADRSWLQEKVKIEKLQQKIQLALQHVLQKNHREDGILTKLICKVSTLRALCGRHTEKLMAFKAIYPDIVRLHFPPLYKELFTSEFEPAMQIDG
As to the kind of experiment: competition with a labelled probe. The note with it: 1 pmol unlabeled mutant did not compete with 1 fmol wild-type probe in EMSA; protein translated in vitro; protein details: TNT SP6 reticulocyte lysate, pCMV-Sport6 cDNA; variant of Bmal1 RORE wild-type.

Data set [5] concerns the target T5, Rorc (UniProt P51450).
T5 sequence (looked up, limits assumed): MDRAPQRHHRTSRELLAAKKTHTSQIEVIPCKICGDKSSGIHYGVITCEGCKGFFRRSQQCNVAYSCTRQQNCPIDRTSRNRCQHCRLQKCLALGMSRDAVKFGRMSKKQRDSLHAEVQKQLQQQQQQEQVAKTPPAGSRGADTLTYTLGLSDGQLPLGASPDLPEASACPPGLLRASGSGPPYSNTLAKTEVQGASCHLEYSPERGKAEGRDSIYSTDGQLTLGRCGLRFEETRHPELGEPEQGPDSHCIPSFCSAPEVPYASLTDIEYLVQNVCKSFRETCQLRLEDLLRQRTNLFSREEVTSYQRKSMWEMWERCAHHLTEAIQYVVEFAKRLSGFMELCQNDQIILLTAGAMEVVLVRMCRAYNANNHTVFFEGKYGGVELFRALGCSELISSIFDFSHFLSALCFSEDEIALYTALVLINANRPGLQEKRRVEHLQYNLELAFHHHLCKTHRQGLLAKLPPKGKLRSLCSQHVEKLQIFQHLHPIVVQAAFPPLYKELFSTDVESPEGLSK
As to the kind of experiment: competition with a labelled probe. The note with it: 1 pmol unlabeled mutant did not compete with 1 fmol wild-type probe in EMSA; protein translated in vitro; protein details: TNT SP6 reticulocyte lysate, pCMV-Sport6 cDNA; variant of Bmal1 RORE wild-type.

The target of data set [6] is T1, Rev-erb alpha. The data set is described as follows: EMSA. The note with it: protein translated in vitro; protein details: TNT reticulocyte lysate; label: 32P.
Data set [7] deals with T2, Rev-erb beta. The data set is described as follows: EMSA. The note with it: protein translated in vitro; protein details: TNT SP6 reticulocyte lysate, pCMV-Sport6 cDNA; label: 32P.
Data set [8] has as its target T3, Rora1. The data set is described as follows: EMSA. The note with it: protein translated in vitro; protein details: TNT SP6 reticulocyte lysate, pCMV-Sport6 cDNA; label: 32P.
Data set [9] relates to T4, Rora4. The data set is described as follows: EMSA. The note with it: protein translated in vitro; protein details: TNT SP6 reticulocyte lysate, pCMV-Sport6 cDNA; label: 32P.
The target of data set [10] is T5, Rorc. As to the kind of experiment: EMSA. The note with it: protein translated in vitro; protein details: TNT SP6 reticulocyte lysate, pCMV-Sport6 cDNA; label: 32P.

In the case of “GAAGGCAGAAAGTACGTCAGGGACGGAG (double strand) [Bmal1 RORE mutant]”, the binding result with Rev-erb alpha [1], with Rev-erb beta [2], with Rora1 [3], in the data set with Rora4 [4] and in the data set with Rorc [5] was “no binding” throughout.

Consider “GAAGGCAGAAAGTAGGTCAGGGACGGAG (double strand) [Bmal1 RORE wild-type]”, for which the binding result with Rev-erb alpha [6], with Rev-erb beta [7], in the data set with Rora1 [8], in the data set with Rora4 [9] and with Rorc [10] was “binds” each time.

Source of the values: patent publication US20050186138.
